According to the supplement of paper PMC11732987, “Enantioselective OTUD7B fragment discovery through chemoproteomics screening and high-throughput optimisation” (Communications Chemistry, 2025):
The list shows a part of the results. The data scatter; read single values as rough.

Chains of the proteins cited; added tags and fusions are not shown. Lines headed by an entry give the natural chain unless they say otherwise; changes in a name come on top. Residues count along the entry.
UniProt P60981: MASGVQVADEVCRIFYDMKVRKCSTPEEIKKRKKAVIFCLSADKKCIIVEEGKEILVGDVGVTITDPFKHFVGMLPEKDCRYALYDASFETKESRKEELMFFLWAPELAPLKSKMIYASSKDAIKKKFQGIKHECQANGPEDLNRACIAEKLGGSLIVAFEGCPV
UniProt Q14204, whole entry, looked up: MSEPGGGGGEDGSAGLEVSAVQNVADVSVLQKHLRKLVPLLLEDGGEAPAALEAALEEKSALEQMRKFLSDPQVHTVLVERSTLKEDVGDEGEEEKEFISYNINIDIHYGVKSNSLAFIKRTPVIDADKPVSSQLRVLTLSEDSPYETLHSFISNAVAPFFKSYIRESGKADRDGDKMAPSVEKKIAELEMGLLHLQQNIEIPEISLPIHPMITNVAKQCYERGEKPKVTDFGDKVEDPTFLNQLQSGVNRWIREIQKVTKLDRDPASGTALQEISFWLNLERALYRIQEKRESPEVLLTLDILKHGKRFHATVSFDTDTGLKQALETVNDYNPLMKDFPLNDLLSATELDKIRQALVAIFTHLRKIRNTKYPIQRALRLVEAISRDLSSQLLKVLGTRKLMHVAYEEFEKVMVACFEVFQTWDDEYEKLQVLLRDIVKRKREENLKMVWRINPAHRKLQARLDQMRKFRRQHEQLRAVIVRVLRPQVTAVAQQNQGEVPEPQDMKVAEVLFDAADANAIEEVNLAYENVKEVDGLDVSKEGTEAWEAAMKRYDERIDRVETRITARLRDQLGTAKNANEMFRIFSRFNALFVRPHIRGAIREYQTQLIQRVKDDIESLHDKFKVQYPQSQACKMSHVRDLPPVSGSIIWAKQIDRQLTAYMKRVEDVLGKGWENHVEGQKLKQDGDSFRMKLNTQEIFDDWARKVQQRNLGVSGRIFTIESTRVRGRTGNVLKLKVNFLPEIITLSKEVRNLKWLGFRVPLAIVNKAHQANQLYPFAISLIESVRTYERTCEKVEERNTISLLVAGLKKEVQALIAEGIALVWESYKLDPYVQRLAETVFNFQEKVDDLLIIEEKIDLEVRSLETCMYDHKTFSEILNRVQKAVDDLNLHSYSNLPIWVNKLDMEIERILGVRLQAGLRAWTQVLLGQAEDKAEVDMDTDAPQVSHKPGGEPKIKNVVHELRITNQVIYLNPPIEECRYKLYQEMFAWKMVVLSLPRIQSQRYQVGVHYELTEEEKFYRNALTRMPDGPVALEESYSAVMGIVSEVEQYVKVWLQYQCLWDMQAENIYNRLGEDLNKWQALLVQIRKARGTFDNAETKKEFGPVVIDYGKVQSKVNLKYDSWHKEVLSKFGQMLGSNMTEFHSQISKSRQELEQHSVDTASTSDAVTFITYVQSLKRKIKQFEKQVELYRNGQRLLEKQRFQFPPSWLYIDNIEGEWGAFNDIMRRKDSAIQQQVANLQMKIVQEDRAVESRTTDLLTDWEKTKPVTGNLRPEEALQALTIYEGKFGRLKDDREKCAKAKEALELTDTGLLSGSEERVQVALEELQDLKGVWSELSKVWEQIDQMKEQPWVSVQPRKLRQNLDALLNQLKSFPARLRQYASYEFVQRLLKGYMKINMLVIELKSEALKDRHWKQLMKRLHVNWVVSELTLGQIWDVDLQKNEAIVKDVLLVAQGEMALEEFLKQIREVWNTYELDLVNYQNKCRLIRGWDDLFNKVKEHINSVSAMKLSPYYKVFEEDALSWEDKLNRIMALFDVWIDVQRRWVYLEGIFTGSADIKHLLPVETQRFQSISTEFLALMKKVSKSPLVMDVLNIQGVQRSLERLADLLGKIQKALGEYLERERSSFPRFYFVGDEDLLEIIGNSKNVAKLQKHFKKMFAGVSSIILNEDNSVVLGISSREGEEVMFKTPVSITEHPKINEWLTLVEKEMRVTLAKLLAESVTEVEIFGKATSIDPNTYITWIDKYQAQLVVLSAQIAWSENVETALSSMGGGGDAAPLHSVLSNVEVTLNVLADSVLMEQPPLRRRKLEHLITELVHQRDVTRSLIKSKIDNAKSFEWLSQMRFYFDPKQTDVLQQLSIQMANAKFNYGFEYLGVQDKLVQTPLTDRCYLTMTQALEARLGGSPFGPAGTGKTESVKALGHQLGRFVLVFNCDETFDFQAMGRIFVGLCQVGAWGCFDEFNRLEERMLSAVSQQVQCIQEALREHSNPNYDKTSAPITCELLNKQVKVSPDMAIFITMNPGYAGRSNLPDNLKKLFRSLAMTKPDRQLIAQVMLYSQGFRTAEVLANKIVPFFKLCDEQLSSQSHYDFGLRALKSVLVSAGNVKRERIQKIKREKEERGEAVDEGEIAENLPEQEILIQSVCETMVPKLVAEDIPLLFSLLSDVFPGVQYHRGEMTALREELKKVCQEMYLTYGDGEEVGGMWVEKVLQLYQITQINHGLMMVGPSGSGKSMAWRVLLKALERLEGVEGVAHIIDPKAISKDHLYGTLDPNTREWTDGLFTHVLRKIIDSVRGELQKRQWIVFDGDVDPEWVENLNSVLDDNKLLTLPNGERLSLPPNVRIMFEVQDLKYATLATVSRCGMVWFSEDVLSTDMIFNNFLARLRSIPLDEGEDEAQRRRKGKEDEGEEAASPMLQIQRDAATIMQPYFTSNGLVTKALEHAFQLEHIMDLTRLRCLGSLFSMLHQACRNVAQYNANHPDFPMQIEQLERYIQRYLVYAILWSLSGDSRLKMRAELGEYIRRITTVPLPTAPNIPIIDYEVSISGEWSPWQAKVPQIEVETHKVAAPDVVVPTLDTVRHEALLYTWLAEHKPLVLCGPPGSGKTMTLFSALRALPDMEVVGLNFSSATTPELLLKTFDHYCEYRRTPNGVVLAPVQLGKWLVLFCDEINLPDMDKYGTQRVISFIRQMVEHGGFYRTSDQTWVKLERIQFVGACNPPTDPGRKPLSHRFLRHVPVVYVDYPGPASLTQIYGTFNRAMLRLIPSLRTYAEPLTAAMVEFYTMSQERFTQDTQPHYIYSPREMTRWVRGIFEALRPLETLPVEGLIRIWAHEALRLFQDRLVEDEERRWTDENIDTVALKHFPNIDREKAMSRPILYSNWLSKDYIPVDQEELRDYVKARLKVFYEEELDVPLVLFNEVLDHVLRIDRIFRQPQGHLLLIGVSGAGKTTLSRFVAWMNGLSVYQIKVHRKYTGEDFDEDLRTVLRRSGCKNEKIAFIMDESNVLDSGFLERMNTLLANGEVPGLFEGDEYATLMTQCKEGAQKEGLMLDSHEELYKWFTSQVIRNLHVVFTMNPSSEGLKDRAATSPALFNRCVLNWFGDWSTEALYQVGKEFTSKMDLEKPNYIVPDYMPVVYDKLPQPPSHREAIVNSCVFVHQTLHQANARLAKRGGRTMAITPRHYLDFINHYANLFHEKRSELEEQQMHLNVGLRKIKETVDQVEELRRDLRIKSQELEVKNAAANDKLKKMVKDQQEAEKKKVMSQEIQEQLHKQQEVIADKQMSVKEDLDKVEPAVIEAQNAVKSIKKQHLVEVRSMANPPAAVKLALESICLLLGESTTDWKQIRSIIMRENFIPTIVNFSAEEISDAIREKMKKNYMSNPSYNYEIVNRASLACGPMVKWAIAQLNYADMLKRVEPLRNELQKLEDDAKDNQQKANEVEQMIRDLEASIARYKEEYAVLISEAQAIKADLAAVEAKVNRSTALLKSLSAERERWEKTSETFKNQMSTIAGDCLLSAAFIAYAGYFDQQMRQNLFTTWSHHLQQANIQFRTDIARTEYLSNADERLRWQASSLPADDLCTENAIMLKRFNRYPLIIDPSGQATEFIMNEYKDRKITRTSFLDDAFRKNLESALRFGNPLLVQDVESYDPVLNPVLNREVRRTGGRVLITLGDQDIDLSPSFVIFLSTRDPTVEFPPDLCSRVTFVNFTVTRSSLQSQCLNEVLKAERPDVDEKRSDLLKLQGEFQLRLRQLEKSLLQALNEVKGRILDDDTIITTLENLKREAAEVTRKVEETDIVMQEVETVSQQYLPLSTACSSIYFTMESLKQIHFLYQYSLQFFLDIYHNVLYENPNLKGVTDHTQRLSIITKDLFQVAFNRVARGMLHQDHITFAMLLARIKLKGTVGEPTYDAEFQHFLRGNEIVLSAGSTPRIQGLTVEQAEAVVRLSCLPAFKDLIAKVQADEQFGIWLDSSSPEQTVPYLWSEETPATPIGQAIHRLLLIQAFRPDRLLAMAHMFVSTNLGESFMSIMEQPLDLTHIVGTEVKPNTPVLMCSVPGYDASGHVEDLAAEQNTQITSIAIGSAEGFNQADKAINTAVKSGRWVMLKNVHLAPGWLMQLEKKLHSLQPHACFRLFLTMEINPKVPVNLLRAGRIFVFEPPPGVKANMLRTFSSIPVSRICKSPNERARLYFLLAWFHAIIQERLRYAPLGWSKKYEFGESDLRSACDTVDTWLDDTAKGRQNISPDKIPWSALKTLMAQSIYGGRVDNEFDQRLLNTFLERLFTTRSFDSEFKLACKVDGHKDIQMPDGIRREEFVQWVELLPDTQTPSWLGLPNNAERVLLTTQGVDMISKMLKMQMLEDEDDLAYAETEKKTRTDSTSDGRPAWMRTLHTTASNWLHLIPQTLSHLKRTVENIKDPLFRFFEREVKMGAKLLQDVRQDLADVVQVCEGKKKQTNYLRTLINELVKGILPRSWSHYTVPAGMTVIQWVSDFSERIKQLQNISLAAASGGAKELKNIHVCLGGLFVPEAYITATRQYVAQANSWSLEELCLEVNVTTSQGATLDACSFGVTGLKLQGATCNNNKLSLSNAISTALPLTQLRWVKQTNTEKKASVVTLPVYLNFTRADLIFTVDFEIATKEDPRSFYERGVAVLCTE
UniProt O15371, whole entry, looked up: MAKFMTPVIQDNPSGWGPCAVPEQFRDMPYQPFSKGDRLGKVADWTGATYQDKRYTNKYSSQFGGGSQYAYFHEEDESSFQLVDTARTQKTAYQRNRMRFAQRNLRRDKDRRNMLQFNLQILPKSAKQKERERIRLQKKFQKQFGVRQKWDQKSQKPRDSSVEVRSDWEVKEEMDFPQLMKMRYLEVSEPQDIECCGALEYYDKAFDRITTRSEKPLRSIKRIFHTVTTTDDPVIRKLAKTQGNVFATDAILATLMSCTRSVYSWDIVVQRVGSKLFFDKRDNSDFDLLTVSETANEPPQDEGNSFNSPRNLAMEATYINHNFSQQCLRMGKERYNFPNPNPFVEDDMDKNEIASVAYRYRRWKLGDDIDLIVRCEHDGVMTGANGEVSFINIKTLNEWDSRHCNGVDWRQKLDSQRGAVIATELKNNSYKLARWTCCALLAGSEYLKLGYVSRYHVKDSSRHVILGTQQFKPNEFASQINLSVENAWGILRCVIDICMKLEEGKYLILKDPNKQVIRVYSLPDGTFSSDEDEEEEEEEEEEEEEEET
UniProt Q9NZJ0: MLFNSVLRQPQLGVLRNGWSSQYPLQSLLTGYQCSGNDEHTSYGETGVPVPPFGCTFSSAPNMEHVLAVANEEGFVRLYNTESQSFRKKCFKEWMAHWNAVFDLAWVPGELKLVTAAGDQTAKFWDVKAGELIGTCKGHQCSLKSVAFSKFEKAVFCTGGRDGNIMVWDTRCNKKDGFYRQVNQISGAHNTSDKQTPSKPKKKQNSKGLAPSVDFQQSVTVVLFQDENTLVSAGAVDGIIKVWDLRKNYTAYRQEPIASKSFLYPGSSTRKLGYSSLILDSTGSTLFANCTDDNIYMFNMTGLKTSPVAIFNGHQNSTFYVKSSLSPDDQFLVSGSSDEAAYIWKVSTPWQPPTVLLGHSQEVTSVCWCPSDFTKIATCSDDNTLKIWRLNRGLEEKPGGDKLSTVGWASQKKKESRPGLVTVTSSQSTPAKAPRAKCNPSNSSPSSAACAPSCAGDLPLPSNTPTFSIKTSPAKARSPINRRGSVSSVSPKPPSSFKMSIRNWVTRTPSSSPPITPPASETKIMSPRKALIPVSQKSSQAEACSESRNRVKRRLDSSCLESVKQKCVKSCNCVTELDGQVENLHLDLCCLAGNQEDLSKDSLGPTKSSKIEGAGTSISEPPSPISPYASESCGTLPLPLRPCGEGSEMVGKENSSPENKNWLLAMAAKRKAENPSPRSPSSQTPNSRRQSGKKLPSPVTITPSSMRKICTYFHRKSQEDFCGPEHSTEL
UniProt Q9BVC3: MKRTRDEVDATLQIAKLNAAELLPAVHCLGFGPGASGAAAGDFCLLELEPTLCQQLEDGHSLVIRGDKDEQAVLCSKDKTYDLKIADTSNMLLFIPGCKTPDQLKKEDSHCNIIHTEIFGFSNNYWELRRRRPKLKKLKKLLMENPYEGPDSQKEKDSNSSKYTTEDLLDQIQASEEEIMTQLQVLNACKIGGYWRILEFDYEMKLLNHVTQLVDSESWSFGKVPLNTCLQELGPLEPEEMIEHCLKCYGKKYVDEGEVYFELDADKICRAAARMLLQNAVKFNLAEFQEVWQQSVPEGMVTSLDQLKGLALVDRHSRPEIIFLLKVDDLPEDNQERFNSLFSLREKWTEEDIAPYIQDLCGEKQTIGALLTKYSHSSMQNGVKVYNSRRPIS
UniProt P63167, 10-31: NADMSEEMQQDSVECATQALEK

The targets below were run with ClCC(=O)N[C@H]1CCCc2ccccc12 (assay: log2 mean competition ratio of IA-DTB cysteine labelling (DMSO/compound) (log2 ratio); higher = stronger cysteine engagement by compound). Conditions: 50 µM; treatment time: 4 h; cell line lysate: HEK293T.
Experimental: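 IA-DTB competitive cysteine chemoproteomics in HEK293T RIPA lysate. Lysates were treated with compound 29 or 30 at 50 or 200 µM for 4 h, then IA-DTB (500 µM, 1 h), trypsin-digested, NeutrAvidin-enriched and analysed by diaPASEF. Competition ratio = intensity DMSO / intensity compound (n=4 treated, n=64 DMSO); binding: mean log2 CR ≥ 1 and p ≤ 0.05 plus QC filters. Target is the cysteine site.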

Target	log2 mean competition ratio
EIF4B C457	0.0139
DYNC2H1 C3657 (UniProt Q8NCM8)	0.081
DSTN C12 (UniProt P60981)	-0.483
DYNC1H1 C3940 (UniProt Q14204)	-0.198
DST C5056 (UniProt Q03001)	0.061
DTNB C197	0.0353
EIF3D C404 (UniProt O15371)	-0.348
EIF2S3B C105	0.298
EIF2B1 C115 (UniProt Q14232)	0.171
E2F7 C151	0.0314
EIF2B5 C196	0.362
DTX3L C175 (UniProt Q8TDB6)	-0.219
EDC4 C1054 (UniProt Q6P2E9)	-0.0167
DSP C768 (UniProt P15924)	-0.0628
DTL C157 (UniProt Q9NZJ0)	0.512
EIF5B C1126 (UniProt O60841)	0.108
DSCC1 C75 (UniProt Q9BVC3)	-0.0449
DYNC1H1 C3693 (UniProt Q14204)	0.216
EBF2 C254	-0.0691
DYNLL1 C24 (UniProt P63167)	0.0179

Same assay, conditions: 200 µM; treatment time: 4 h; cell line lysate: HEK293T

Target	log2 mean competition ratio
EIF4B C457	-0.447
DYNC2H1 C3657 (UniProt Q8NCM8)	0.0671
DSTN C12 (UniProt P60981)	0.329
DYNC1H1 C3940 (UniProt Q14204)	-0.275
DST C5056 (UniProt Q03001)	-0.0281
DTNB C197	0.0405
EIF3D C404 (UniProt O15371)	0.0302
EIF2S3B C105	0.0874
EIF2B1 C115 (UniProt Q14232)	-0.294
E2F7 C151	0.129
EIF2B5 C196	-0.0426
DTX3L C175 (UniProt Q8TDB6)	0.153
EDC4 C1054 (UniProt Q6P2E9)	0.356
DSP C768 (UniProt P15924)	-0.418
DTL C157 (UniProt Q9NZJ0)	0.191
EIF5B C1126 (UniProt O60841)	0.0463
DSCC1 C75 (UniProt Q9BVC3)	0.152
DYNC1H1 C3693 (UniProt Q14204)	-0.251
EBF2 C254	0.0757
DYNLL1 C24 (UniProt P63167)	-0.0256
